Measurements from US20190300589A1.
These are yes or no findings as the source states them, for the method shown. Some binding calls cover weakened binding; strength is not graded here.

By UniProt entry, the sequences of proteins in these tests, tags left out. Where a name states a change or a piece, a line headed by the entry shows the natural chain unless it says otherwise.
UniProt P01024: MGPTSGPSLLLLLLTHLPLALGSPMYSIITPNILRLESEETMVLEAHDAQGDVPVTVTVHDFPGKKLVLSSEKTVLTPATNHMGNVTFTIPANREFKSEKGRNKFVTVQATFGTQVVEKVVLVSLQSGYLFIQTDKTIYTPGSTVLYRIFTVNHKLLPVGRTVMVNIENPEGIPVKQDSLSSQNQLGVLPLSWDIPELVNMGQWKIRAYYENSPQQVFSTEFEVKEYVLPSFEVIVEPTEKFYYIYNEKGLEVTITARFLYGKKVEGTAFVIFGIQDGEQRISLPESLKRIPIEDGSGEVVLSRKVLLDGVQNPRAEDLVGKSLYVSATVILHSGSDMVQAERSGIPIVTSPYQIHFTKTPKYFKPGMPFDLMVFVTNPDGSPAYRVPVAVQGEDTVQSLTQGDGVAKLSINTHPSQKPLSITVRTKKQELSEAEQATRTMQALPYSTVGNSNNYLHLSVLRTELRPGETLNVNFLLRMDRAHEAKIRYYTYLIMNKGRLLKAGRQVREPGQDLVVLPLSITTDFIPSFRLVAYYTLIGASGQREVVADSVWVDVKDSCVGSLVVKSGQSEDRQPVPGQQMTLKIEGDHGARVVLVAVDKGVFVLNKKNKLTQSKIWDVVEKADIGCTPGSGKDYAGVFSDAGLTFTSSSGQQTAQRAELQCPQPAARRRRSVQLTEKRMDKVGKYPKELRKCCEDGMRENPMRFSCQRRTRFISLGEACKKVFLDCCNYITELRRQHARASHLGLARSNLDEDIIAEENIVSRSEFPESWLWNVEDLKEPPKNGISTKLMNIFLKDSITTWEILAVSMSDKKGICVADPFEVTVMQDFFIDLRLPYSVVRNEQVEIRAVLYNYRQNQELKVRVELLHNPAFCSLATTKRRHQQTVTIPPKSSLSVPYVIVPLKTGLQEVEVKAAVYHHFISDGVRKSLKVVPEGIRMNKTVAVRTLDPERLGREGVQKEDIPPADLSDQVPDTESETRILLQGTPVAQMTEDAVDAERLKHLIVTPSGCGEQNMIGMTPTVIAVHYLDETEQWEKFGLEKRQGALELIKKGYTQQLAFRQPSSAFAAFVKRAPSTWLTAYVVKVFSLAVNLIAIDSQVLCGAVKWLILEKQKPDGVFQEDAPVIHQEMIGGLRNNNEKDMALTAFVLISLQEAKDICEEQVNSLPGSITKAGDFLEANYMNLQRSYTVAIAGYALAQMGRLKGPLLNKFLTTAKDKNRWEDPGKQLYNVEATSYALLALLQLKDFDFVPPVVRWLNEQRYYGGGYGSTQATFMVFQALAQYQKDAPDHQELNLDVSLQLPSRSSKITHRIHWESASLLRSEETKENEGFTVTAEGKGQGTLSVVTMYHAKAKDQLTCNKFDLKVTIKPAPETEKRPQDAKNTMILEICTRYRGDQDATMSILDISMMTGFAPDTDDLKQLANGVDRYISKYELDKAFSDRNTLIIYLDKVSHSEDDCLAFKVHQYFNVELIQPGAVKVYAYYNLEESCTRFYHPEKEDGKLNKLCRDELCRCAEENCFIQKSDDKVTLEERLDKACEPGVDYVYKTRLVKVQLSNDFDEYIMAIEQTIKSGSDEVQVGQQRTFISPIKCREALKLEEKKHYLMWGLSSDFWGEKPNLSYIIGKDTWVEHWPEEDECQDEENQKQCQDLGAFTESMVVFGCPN
UniProt P08603: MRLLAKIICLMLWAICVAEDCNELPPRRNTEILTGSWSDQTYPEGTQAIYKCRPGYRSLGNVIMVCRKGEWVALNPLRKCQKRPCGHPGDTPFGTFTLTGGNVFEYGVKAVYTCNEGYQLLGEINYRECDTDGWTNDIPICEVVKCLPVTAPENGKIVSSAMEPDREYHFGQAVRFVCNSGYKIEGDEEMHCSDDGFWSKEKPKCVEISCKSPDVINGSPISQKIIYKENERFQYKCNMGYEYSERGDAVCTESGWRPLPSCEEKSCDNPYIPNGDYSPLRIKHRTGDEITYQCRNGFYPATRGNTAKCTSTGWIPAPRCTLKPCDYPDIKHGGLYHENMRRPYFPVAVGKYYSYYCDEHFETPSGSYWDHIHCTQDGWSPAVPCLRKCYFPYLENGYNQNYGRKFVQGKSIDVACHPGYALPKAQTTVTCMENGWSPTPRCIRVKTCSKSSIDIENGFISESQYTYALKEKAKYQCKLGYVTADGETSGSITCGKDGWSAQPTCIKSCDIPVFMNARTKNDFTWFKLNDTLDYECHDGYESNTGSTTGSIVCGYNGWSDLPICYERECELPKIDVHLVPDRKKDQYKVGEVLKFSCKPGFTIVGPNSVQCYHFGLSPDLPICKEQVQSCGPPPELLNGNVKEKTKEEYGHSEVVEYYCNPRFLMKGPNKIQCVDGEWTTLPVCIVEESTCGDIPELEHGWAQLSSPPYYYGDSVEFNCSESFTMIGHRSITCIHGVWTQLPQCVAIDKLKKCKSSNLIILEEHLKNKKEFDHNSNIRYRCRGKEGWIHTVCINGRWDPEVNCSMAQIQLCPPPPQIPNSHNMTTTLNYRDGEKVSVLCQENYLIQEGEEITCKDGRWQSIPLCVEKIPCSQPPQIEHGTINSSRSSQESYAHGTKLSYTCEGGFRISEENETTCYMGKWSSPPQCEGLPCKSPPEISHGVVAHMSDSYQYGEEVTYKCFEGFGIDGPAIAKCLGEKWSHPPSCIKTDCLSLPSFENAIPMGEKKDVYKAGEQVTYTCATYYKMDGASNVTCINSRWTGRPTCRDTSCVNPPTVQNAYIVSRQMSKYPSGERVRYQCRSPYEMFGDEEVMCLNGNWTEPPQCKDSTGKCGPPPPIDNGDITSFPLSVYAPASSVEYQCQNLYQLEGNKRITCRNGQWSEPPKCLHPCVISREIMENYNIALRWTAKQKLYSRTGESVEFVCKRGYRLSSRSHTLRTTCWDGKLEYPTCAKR

Biological target: C3b (UniProt P01024)
Assay: ELISA, C3b immobilised, serial dilutions of hFH, anti-FH detection

**Q.** For “human plasma derived Factor H (hFH) (from UniProt P08603 19-1231)”, which binding is on record?
**A.** binds
